Measurements as given in US8003595B2, “Amino acid sequences facilitating penetration of a substance of interest into cells and/or cell nuclei” (Cellectis, priority 2000, dated 2011).

Legend:
Assay in all cases: Growth inhibition by peptide-doxorubicin conjugates (MTT, 48 hours)
Format in all cases: cell-based
Settings in all cases: Homo sapiens, read-out: molar concentration giving 50% inhibition of the growth of the cells
K562 = tested on: K562
Method: (§1) To evaluate the biological activity of peptide-doxorubicin conjugates, the inhibition of the growth of tumor cells in culture is measured.
(§2) The cells are sown the night before in 96-well plates at the rate of 10^3 cells per well.

MCF7 = tested on: MCF7
Method: as §1, §2

HeLa = tested on: HeLa
Method: as §1, §2

Which IC50 (K562) does the source give for `COc1cccc2c1C(=O)c1c(O)c3c(c(O)c1C2=O)C[C@@](O)(C(=O)CO)C[C@@H]3O[C@H]1C[C@H](N)[C@H](O)[C@H](C)O1` [Doxorubicin (natural), Doxorubicin] here?
The IC50 was 40 nM.

What about the IC50 (MCF7) of the same compound?
Its IC50 is 200 nM.

What about the IC50 (HeLa) of the same compound?
The IC50 was 200 nM.
